Measured values: PubChem BioAssay AID2685 (National Center for Advancing Translational Sciences (NCATS), 2010)
Some of the results follow. The main result of the screen is listed elsewhere. These columns were measured beside it and carry no call. The list favours compounds with an active or inconclusive main result. Potencies come from curve fits of mixed quality, noted in brackets.

Assay: qHTS Assay for Lipid Storage Modulators in Drosophila S3 Cells;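 for cell number change: cells counted by Cell Tracker Red CMTPX staining in the red channel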
Conditions: BODIPY lipid droplet fluorescence, 18-24 h; for cell number change: measured here: cell count max response, cells fed with added oleic acid
Summary of the method: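 Laser-scanning cytometry quantifies lipid droplet accumulation (500–530 nm total intensity; droplet/cell object ratio) in oleic acid-fed (400 uM added) Drosophila S3 cells treated with a concentration series. 20 uM Triacsin C defined 100% inhibition.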

[1] = measured here: lipid fluorescence (Fed channel) AC50, cells fed with added oleic acid
[2] = measured here: cell number channel AC50, cells fed with added oleic acid

Row | SMILES | cell number change | AC50 [1] | AC50 [2]
1 | C=CCn1c(NCc2ccccc2O)nc2ccccc21 | -6.74% | 29.1 µM [falling, single point] | –
2 | C[C@H]1C=C(C(=O)N2CCOCC2)O[C@@H](OCc2ccc(CO)cc2)C1 | 20.3% | 13 µM [rising, partial curve] | –
3 | CCN(c1ccccc1)S(=O)(=O)c1ccc(C(=O)Nc2ccccn2)cc1 | -21.8% | 4.11 µM [falling, partial curve, poor fit] | –
4 | NC(=O)c1ccsc1NC(=O)CCS(=O)(=O)c1ccc(Cl)cc1 | – | 0.0058 µM [falling, full curve, poor fit] | –
5 | Cc1cccc(N(C)C(=O)C2CCCN2S(=O)(=O)c2cccc3nsnc23)c1 (stereo not drawn) | 17.4% | 0.58 µM [falling, single point] | –
6 | Cc1cnn(-c2cc(N/N=C/c3ccc(F)cc3)ncn2)c1 | 10.4% | 0.326 µM [rising, full curve, poor fit] | –
7 | O=C(NCCc1ccc(Cl)cc1)C1CC(=O)N(CCc2ccccc2)C1 (stereo not drawn) | 35.3% | 29.1 µM [rising, single point] | 0.0103 µM [rising, full curve, poor fit]
8 | CCNC(=O)CN(c1ccccc1OC)S(=O)(=O)c1cccs1 | 64.3% | 18.4 µM [rising, partial curve] | 14.6 µM [rising, partial curve]
9 | COc1ccc(C2=NOC(Cn3nc(C(=O)NCc4cccs4)cc3-c3ccccc3)C2)cc1 (stereo not drawn) | -15.5% | 2.31 µM [rising, partial curve, poor fit] | –
10 | COc1ccccc1NC(=O)NCc1ccccc1F | 31.4% | – | 1.46 µM [rising, full curve, poor fit]
11 | Cc1ccc(N2C(=O)C3C(c4ccccc4)(C2=O)C3(c2ccccc2)c2ccccc2)cc1 (stereo not drawn) | 172% | 20.6 µM [rising, partial curve] | 25.9 µM [rising, single point]
12 | N#Cc1c(NC(=O)CSc2nc(-c3ccco3)cc(C(F)(F)F)n2)sc2c1CCCC2 | -25.1% | – | –
13 | Cc1ccc(-n2nc3ccc(N)cc3n2)cc1C | 0.587% | – | –
14 | C=CCNC(=O)c1ccc2c3n(nc2c1)-c1ccc(C)cc1CO3 | 11.6% | 0.461 µM [rising, partial curve, poor fit] | –
15 | CCN1CC=C2C(C#N)=C(N)C(C#N)(C#N)C(c3cc(Cl)ccc3Cl)C2C1 (stereo not drawn) | 4.78% | 10.3 µM [rising, partial curve, poor fit] | –
16 | COc1ccc(CNC(=O)C2CCN(C(=O)c3cccc(Cl)c3)CC2)cc1 | -24.3% | – | –
17 | COC(=O)CSc1ncccc1-c1nc2ccccc2[nH]1 | – | – | 6.51 µM [falling, single point]
18 | Cc1cccc(C)c1OCC(=O)Nc1cc(Cl)ccc1-n1cncn1 | 34% | 0.184 µM [rising, full curve, poor fit] | 0.164 µM [rising, full curve, poor fit]
19 | COC(=O)c1cc(-c2ccccc2)n[nH]1 | -25% | – | –
20 | CC(Oc1cccc(Cl)c1)C(=O)Nc1ccncc1 (stereo not drawn) | 9.64% | 18.4 µM [falling, single point] | –

From entry 8 as far as 11, copied from above:
Row | SMILES | cell number change | AC50 [1] | AC50 [2]
8 | CCNC(=O)CN(c1ccccc1OC)S(=O)(=O)c1cccs1 | 64.3% | 18.4 µM [rising, partial curve] | 14.6 µM [rising, partial curve]
9 | COc1ccc(C2=NOC(Cn3nc(C(=O)NCc4cccs4)cc3-c3ccccc3)C2)cc1 (stereo not drawn) | -15.5% | 2.31 µM [rising, partial curve, poor fit] | –
10 | COc1ccccc1NC(=O)NCc1ccccc1F | 31.4% | – | 1.46 µM [rising, full curve, poor fit]
11 | Cc1ccc(N2C(=O)C3C(c4ccccc4)(C2=O)C3(c2ccccc2)c2ccccc2)cc1 (stereo not drawn) | 172% | 20.6 µM [rising, partial curve] | 25.9 µM [rising, single point]

Continuation.

Row | SMILES | cell number change | AC50 [1] | AC50 [2]
21 | CCSc1nnc(NC(=O)CSc2nnc(-c3c[nH]c4ccccc34)n2C)s1 | – | 0.146 µM [falling, full curve, poor fit] | –
22 | Cc1cc(CN2CCC(n3nccc3NC(=O)c3ccccc3C)CC2)n[nH]1 | -28% | – | 0.00461 µM [falling, full curve, poor fit]
23 | COc1ccc(CNC(=O)CN(Cc2ccco2)C(=O)CNS(=O)(=O)c2ccc(F)cc2)cc1 | 2.56% | – | –
24 | CCOC(=O)N1CCN(C(=O)CSc2nnc(CNC(=O)c3ccccc3F)o2)CC1 | 40.9% | – | 0.00461 µM [rising, full curve, poor fit]
25 | O=C1C=C(Nc2ccccc2)CC(c2ccccc2)C1 (stereo not drawn) | 30.6% | – | 32.6 µM [rising, single point]
26 | CCCC1Cc2c(sc(N)c2C#N)CO1 (stereo not drawn) | 4.96% | 7.31 µM [falling, single point] | –
27 | C=CCn1c(SCC(=O)Nc2sccc2C(N)=O)nc2sc(C)c(C)c2c1=O | 8.67% | 0.0164 µM [rising, full curve, poor fit] | –
28 | O=C(CN(c1ccccc1)S(=O)(=O)c1ccccc1[N+](=O)[O-])Nc1ccccc1C(=O)N1CCOCC1 | -55.3% | 5.8 µM [falling, full curve] | 6.51 µM [falling, partial curve]
29 | Cc1nn(CC(=O)N2CCN(C)CC2)c(=O)c2ccccc12 | -3.84% | 0.146 µM [falling, full curve, poor fit] | 0.206 µM [falling, partial curve]
30 | Cc1ccc(NC(=O)c2cc(S(=O)(=O)N3CCc4ccccc43)cn2C)cc1C | 43.8% | – | 20.6 µM [rising, single point]
31 | O=C(O)c1ccc(N/N=C/c2ccc(OC(=O)c3cccc(Cl)c3)cc2)cc1 | -11.8% | 0.517 µM [falling, single point] | –
32 | COCc1cc(C)nc(Nc2ccc(C)cc2C)c1C#N | 173% | 3.66 µM [rising, partial curve] | 7.31 µM [rising, partial curve]
33 | CCOc1ccc(S(=O)(=O)Nc2nc3cc(OC)ccc3s2)cc1 | 1.05% | 6.51 µM [falling, single point] | –
34 | CCCN1C(=O)c2ccccc2NC1c1ccc(Br)cc1 (stereo not drawn) | 51.4% | – | 6.51 µM [rising, full curve, poor fit]
35 | Cc1ccc(NS(=O)(=O)c2ccc(NC(=O)c3ccc(Br)o3)cc2)c(C)c1 | -12.2% | – | –
36 | COc1ccc(-c2cc(C(=O)Nc3ccc4c(c3)OCO4)no2)cc1OC | -9.66% | 29.1 µM [rising, single point] | –
37 | COc1ccccc1C(=O)N/C(=C\c1cn(C)c2ccccc12)C(=O)N1CCCC1 | 4.96% | – | –
38 | CCc1nn(CC(=O)N2CCN(c3ccc(OC)cc3)CC2)c(=O)c2cc3occc3n12 | – | 2.91 µM [rising, partial curve] | –
39 | CCc1cc2c(=O)c(-c3nc4ccccc4n3C)coc2c(CN2CCCCC2C)c1O (stereo not drawn) | -11.1% | – | –
40 | NC1=NS(=O)(=O)NC1c1ccc(Br)cc1 (stereo not drawn) | -12.4% | 0.00517 µM [falling, full curve, poor fit] | –

Row | SMILES | cell number change | AC50 [1] | AC50 [2]
41 | COc1sc(SC)cc1/C=N/NC(=O)c1ccncc1 | 6.3% | 29.1 µM [rising, single point] | –
42 | Cc1cc(-c2nnc(CCC(=O)NC(C)c3ccc(F)cc3)o2)no1 (stereo not drawn) | 20.3% | – | –
43 | Cc1ccc(C(=O)O/N=C(\N)c2ccccn2)c(C)c1 | -36.6% | 0.00517 µM [falling, full curve, poor fit] | 11.6 µM [falling, partial curve, poor fit]
44 | COc1cccc(-n2c(SCc3c(C)noc3C)nnc2-c2cccc(S(=O)(=O)N(C)C)c2)c1 | -5.17% | 2.06 µM [rising, single point] | –
45 | Cc1cc(C)cc(OC(=O)N2CCOCC2)c1 | -6.27% | 20.6 µM [rising, single point] | –
46 | CN(C(=O)COC(=O)CNC(=O)C1CCCCC1)c1ccccc1 | -11.6% | – | –
47 | CC(/C=C/c1ccccc1)=N\NC(=O)Cn1nc(C)cc1C | -32.7% | 29.1 µM [falling, single point] | 23.1 µM [falling, single point]
48 | Cc1cccc2sc(NS(=O)(=O)c3ccccc3)nc12 | 35.4% | – | 3.66 µM [rising, partial curve, poor fit]
49 | CCCCn1c(=O)c(C(C)=O)c(O)c2ccccc21 | -4.94% | 0.651 µM [falling, full curve, poor fit] | –
50 | Cn1c(OCc2cccnc2)nc2c1c(=O)n(Cc1ccc(Br)cc1)c(=O)n2C | -8.91% | 0.731 µM [falling, full curve, poor fit] | –
51 | O=[N+]([O-])c1cc(/C=N/OCc2c(Cl)cccc2Cl)ccc1N1CCOCC1 | -146% | – | –
52 | Cc1ccc2nc(SCC(=O)N3CCN(c4ccccc4)CC3)nc(=O)n2c1 | -13.8% | 1.84 µM [falling, partial curve] | –
53 | CCCCC(=O)NC1(C(F)(F)F)C(=O)Nc2c1c(=O)[nH]c(=O)n2Cc1ccco1 (stereo not drawn) | -28.2% | 23.1 µM [falling, partial curve] | 0.92 µM [falling, full curve, poor fit]
54 | Nc1nc(SCc2nc3sc4c(c3c(=O)[nH]2)CCCC4)n[nH]1 | 30.1% | 6.51 µM [rising, single point] | 6.51 µM [rising, partial curve]
55 | O=C(NC1CCCCCC1)c1ccc(CS(=O)(=O)Cc2ccccc2F)o1 | -20.9% | 0.411 µM [falling, full curve, poor fit] | –
56 | CCCc1nn2c(=O)cc(COc3ccc(NC(=O)c4ccco4)cc3)nc2s1 | -11.6% | 1.46 µM [rising, partial curve, poor fit] | –
57 | CCN(CC)CCN(C(=O)c1ccc2c(c1)OCCO2)c1nc2cc3c(cc2s1)OCO3 | – | 3.98 µM [rising, single point] | –
58 | CCc1ccccc1N(C)S(=O)(=O)c1ccc2[nH]cc(C(=O)N3CCc4ccccc43)c(=O)c2c1 | 2.66% | 6.51 µM [rising, partial curve, poor fit] | –
59 | CCOc1cc(C2NC(=O)N(C)C(C)=C2[N+](=O)[O-])ccc1OC(C)=O (stereo not drawn) | -17.8% | – | –
60 | COc1cccc(NC(=O)CN(C)C(=O)CCCc2nc3ccccc3c(=O)[nH]2)c1 | 0.259% | – | –
